This is one part of the list. Many values rest on one well or one pass, so single values are uncertain.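 Imaging used 1,536-well plates; nuclei positive for cleaved PARP by antibody were divided by total DNA-stained nuclei to yield the apoptosis fraction. Doses for screening kept most cells viable, and cell lines differ markedly in resting and induced cleaved-PARP levels.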
Test system: A2058
Assay: cleaved PARP positive nuclei fraction relative to DMSO control; melanoma cells; higher = more apoptosis
Details: library dose: low library concentration; 72 h

Structure (SMILES)	cleaved PARP positive nuclei fraction
Cc1nc(Nc2ncc(C(=O)Nc3c(C)cccc3Cl)s2)cc(N2CCN(CCO)CC2)n1 [dasatanib] + O=C(CCCCCCC(=O)Nc1ccccc1)NO [vorinostat] (first compound 0.004 µM, partner dose 0.08 µM)	111%
Nc1cccc2c1CN(C1CCC(=O)NC1=O)C2=O (stereo unspecified) [lenalidomide] + CC(C)(C)c1cnc(CSc2cnc(NC(=O)C3CCNCC3)s2)o1 [SNS-032] (first compound 1 µM, partner dose 0.01 µM)	124%
OCc1c[nH]c2ccccc12 [Indole-3-carbinol] + Cc1ccc(NC(=O)c2cccc(N(C)C)c2)cc1NC(=O)c1ccc(O)cc1 [ZM336372] (first compound 0.8 µM, partner dose 2 µM)	139%
COc1cc(Nc2ncc(F)c(Nc3ccc4c(n3)NC(=O)C(C)(C)O4)n2)cc(OC)c1OC [Tamatinib] + COc1cc2c(Oc3ccc4[nH]c(C)cc4c3F)ncnc2cc1OCCCN1CCCC1 [cediranib] (first compound 0.4 µM, partner dose 0.4 µM)	77.1%
C#Cc1cccc(Nc2ncnc3cc(OCCOC)c(OCCOC)cc23)c1 [erlotinib] + CC(C)(C)c1cnc(CSc2cnc(NC(=O)C3CCNCC3)s2)o1 [SNS-032] (first compound 0.8 µM, partner dose 0.01 µM)	132%
Clc1ccc(Nc2nnc(Cc3ccncc3)c3ccccc23)cc1 [vatalanib] + Cc1cc(N2CCOCC2)cc2[nH]c(-c3c(NC[C@@H](O)c4cccc(Cl)c4)cc[nH]c3=O)nc12 [BMS536924] (first compound 2 µM, partner dose 0.2 µM)	89.3%
CC(=O)c1c(C)c2cnc(Nc3ccc(N4CCNCC4)cn3)nc2n(C2CCCC2)c1=O [palbociclib] + Cn1cncc1[C@@](N)(c1ccc(Cl)cc1)c1ccc2c(c1)c(-c1cccc(Cl)c1)cc(=O)n2C [tipifarnib] (first compound 0.04 µM, partner dose 0.01 µM)	97.8%
C[C@]1(c2nc3c(C(N)=O)cccc3[nH]2)CCCN1 [Veliparib] + Cc1ccc(NC(=O)c2cccc(N(C)C)c2)cc1NC(=O)c1ccc(O)cc1 [ZM336372] (first compound 1.4 µM, partner dose 2 µM)	47.1%
C=CCn1c(=O)c2cnc(Nc3ccc(N4CCN(C)CC4)cc3)nc2n1-c1cccc(C(C)(C)O)n1 + CN(C)S(=O)(=O)c1ccc2c(c1)/C(=C/c1cc3c([nH]1)CCCC3)C(=O)N2 [SU6656] (first compound 0.02 µM, partner dose 0.4 µM)	70.7%
Clc1ccc(Nc2nnc(Cc3ccncc3)c3ccccc23)cc1 [vatalanib] + O=C(CCCCCCC(=O)Nc1ccccc1)NO [vorinostat] (first compound 2 µM, partner dose 0.08 µM)	76.4%
OCc1c[nH]c2ccccc12 [Indole-3-carbinol] + COc1cc(Nc2ncc(F)c(Nc3ccc4c(n3)NC(=O)C(C)(C)O4)n2)cc(OC)c1OC [Tamatinib] (first compound 0.8 µM, partner dose 0.4 µM)	141%
COCC[n+]1c2c(n(Cc3cnccn3)c1C)C(=O)c1ccccc1C2=O + C=CCn1c(=O)c2cnc(Nc3ccc(N4CCN(C)CC4)cc3)nc2n1-c1cccc(C(C)(C)O)n1 [MK1775] (first compound 0.0004 µM, partner dose 0.02 µM)	179%
C=CCNC1=C2C[C@@H](C)C[C@H](OC)[C@H](O)[C@@H](C)/C=C(\C)[C@H](OC(N)=O)[C@@H](OC)/C=C\C=C(/C)C(=O)NC(=CC1=O)C2=O [Tanespimycin] + COc1cc(Nc2ncc(F)c(Nc3ccc4c(n3)NC(=O)C(C)(C)O4)n2)cc(OC)c1OC [Tamatinib] (first compound 0.002 µM, partner dose 0.4 µM)	259%
OCc1c[nH]c2ccccc12 [Indole-3-carbinol] + C=CCn1c(=O)c2cnc(Nc3ccc(N4CCN(C)CC4)cc3)nc2n1-c1cccc(C(C)(C)O)n1 [MK1775] (first compound 0.8 µM, partner dose 0.02 µM)	84.9%
Cc1ccc(NC(=O)c2cccc(N(C)C)c2)cc1NC(=O)c1ccc(O)cc1 + CN(NC(=O)CC(=O)NN(C)C(=S)c1ccccc1)C(=S)c1ccccc1 [STA4783] (first compound 2 µM, partner dose 0.006 µM)	314%
Clc1ccc(Nc2nnc(Cc3ccncc3)c3ccccc23)cc1 [vatalanib] + COc1cc2c(Oc3ccc4[nH]c(C)cc4c3F)ncnc2cc1OCCCN1CCCC1 [cediranib] (first compound 2 µM, partner dose 0.4 µM)	64.1%

Structure (SMILES)	cleaved PARP positive nuclei fraction
Cn1nnc2c(C(N)=O)ncn2c1=O [temozolomide] + O=C(O)c1ccc(-c2c[nH]c3ncc(-c4ccccc4)cc23)cc1C1CCCC1 [GSK650394] (first compound 2 µM, partner dose 0.16 µM)	135%
CC1(C)NC(=O)N(c2ccc([N+](=O)[O-])c(C(F)(F)F)c2)C1=O [nilutamide] + CC(C)(C)c1cnc(CSc2cnc(NC(=O)C3CCNCC3)s2)o1 [SNS-032] (first compound 1 µM, partner dose 0.01 µM)	104%
CC(C)(C)c1cnc(CSc2cnc(NC(=O)C3CCNCC3)s2)o1 + CN(C)S(=O)(=O)c1ccc2c(c1)/C(=C/c1cc3c([nH]1)CCCC3)C(=O)N2 [SU6656] (first compound 0.01 µM, partner dose 0.4 µM)	167%
CC(=O)c1c(C)c2cnc(Nc3ccc(N4CCNCC4)cn3)nc2n(C2CCCC2)c1=O [palbociclib] + CN(C)S(=O)(=O)c1ccc2c(c1)/C(=C/c1cc3c([nH]1)CCCC3)C(=O)N2 [SU6656] (first compound 0.04 µM, partner dose 0.4 µM)	121%
CO[C@@H]1[C@H](N(C)C(=O)c2ccccc2)C[C@H]2O[C@]1(C)n1c3ccccc3c3c4c(c5c6ccccc6n2c5c31)C(=O)NC4 [Midostaurin] + C[C@@H]1CCN(C(=O)CC#N)C[C@@H]1N(C)c1ncnc2[nH]ccc12 [CP690550] (first compound 0.08 µM, partner dose 1 µM)	22%
O=C(CCCCCCC(=O)Nc1ccccc1)NO [vorinostat] + CC1(C)NC(=O)N(c2ccc([N+](=O)[O-])c(C(F)(F)F)c2)C1=O [nilutamide] (first compound 0.08 µM, partner dose 1 µM)	30.6%
Cc1ccc(NC(=O)c2cccc(N(C)C)c2)cc1NC(=O)c1ccc(O)cc1 + COc1cc2c(Oc3ccc4[nH]c(C)cc4c3F)ncnc2cc1OCCCN1CCCC1 [cediranib] (first compound 2 µM, partner dose 0.4 µM)	37.3%
OCc1c[nH]c2ccccc12 [Indole-3-carbinol] + CN(NC(=O)CC(=O)NN(C)C(=S)c1ccccc1)C(=S)c1ccccc1 [STA4783] (first compound 0.8 µM, partner dose 0.006 µM)	133%
Cn1c(Nc2ccc(C(F)(F)F)cc2)nc2cc(Oc3ccnc(-c4ncc(C(F)(F)F)[nH]4)c3)ccc21 + NCC(=O)Nc1ccc(-n2nc(C(F)(F)F)cc2-c2ccc3c(ccc4ccccc43)c2)cc1 [OSU03012] (first compound 0.08 µM, partner dose 1 µM)	54.8%
CO[C@@H]1[C@H](N(C)C(=O)c2ccccc2)C[C@H]2O[C@]1(C)n1c3ccccc3c3c4c(c5c6ccccc6n2c5c31)C(=O)NC4 [Midostaurin] + COc1cc2c(Oc3ccc4[nH]c(C)cc4c3F)ncnc2cc1OCCCN1CCCC1 [cediranib] (first compound 0.08 µM, partner dose 0.4 µM)	69.5%
C=CCNC1=C2C[C@@H](C)C[C@H](OC)[C@H](O)[C@@H](C)/C=C(\C)[C@H](OC(N)=O)[C@@H](OC)/C=C\C=C(/C)C(=O)NC(=CC1=O)C2=O [Tanespimycin] + O=C(O)c1ccc(-c2c[nH]c3ncc(-c4ccccc4)cc23)cc1C1CCCC1 [GSK650394] (first compound 0.002 µM, partner dose 0.16 µM)	138%
CC1(C)NC(=O)N(c2ccc([N+](=O)[O-])c(C(F)(F)F)c2)C1=O [nilutamide] + C=CCn1c(=O)c2cnc(Nc3ccc(N4CCN(C)CC4)cc3)nc2n1-c1cccc(C(C)(C)O)n1 [MK1775] (first compound 1 µM, partner dose 0.02 µM)	34.6%
Nc1cccc2c1CN(C1CCC(=O)NC1=O)C2=O (stereo unspecified) [lenalidomide] + CC1(C)NC(=O)N(c2ccc([N+](=O)[O-])c(C(F)(F)F)c2)C1=O [nilutamide] (first compound 1 µM, partner dose 1 µM)	39.7%
CO[C@@H]1[C@H](N(C)C(=O)c2ccccc2)C[C@H]2O[C@]1(C)n1c3ccccc3c3c4c(c5c6ccccc6n2c5c31)C(=O)NC4 [Midostaurin] + NCC(=O)Nc1ccc(-n2nc(C(F)(F)F)cc2-c2ccc3c(ccc4ccccc43)c2)cc1 [OSU03012] (first compound 0.08 µM, partner dose 1 µM)	27.8%
C=CCn1c(=O)c2cnc(Nc3ccc(N4CCN(C)CC4)cc3)nc2n1-c1cccc(C(C)(C)O)n1 + C[C@@H]1CCN(C(=O)CC#N)C[C@@H]1N(C)c1ncnc2[nH]ccc12 [CP690550] (first compound 0.02 µM, partner dose 1 µM)	56.6%

No new results follow: an excerpt of the list.
Structure (SMILES)	cleaved PARP positive nuclei fraction
CO[C@@H]1[C@H](N(C)C(=O)c2ccccc2)C[C@H]2O[C@]1(C)n1c3ccccc3c3c4c(c5c6ccccc6n2c5c31)C(=O)NC4 [Midostaurin] + COc1cc2c(Oc3ccc4[nH]c(C)cc4c3F)ncnc2cc1OCCCN1CCCC1 [cediranib] (first compound 0.08 µM, partner dose 0.4 µM)	69.5%
C=CCNC1=C2C[C@@H](C)C[C@H](OC)[C@H](O)[C@@H](C)/C=C(\C)[C@H](OC(N)=O)[C@@H](OC)/C=C\C=C(/C)C(=O)NC(=CC1=O)C2=O [Tanespimycin] + O=C(O)c1ccc(-c2c[nH]c3ncc(-c4ccccc4)cc23)cc1C1CCCC1 [GSK650394] (first compound 0.002 µM, partner dose 0.16 µM)	138%
CC1(C)NC(=O)N(c2ccc([N+](=O)[O-])c(C(F)(F)F)c2)C1=O [nilutamide] + C=CCn1c(=O)c2cnc(Nc3ccc(N4CCN(C)CC4)cc3)nc2n1-c1cccc(C(C)(C)O)n1 [MK1775] (first compound 1 µM, partner dose 0.02 µM)	34.6%

Reference: the supplement of paper PMC4604168 (melanoma cell lines)
